Assay results from US7247700.
No constants are given. Whether binding was seen depends on the method and setting. Some binding calls cover weakened binding; strength is not graded here.

Biological target: BAK (mouse) (UniProt O08734)
Assay: BMH crosslinking of tBID-treated mitochondria, SDS-PAGE, anti-BAK immunoblot

binding: binds
B1: BAK (protein, mouse, UniProt O08734 2-209, looked up)
chain: ASGQGPGPPKVGCDESPSPSEQQVAQDTEEVFRSYVFYLHQQEQETQGAAAPANPEMDNLPLEPNSILGQVGRQLALIGDDINRRYDTEFQNLLEQLQPTAGNAYELFTKIASSLFKSGISWGRVVALLGFGYRLALYVYQRGLTGFLGQVTCFLADIILHHYIARWIAQRGGWVAALNFRRDPILTVMVIFGVVLLGQFVVHRFFRS
